# Hit rate of the full screen: of about 400,000 compounds, about 13,000 (3.2%) were called active. Inconclusive results, whose numbers are uncertain, are shown with a selection of clear calls. Calls come from the whole dose curve; as a rule, active = well fitted cell-killing curve with a large enough effect; inconclusive = small, poorly fitted or top-dose-only effect, or effect the other way; inactive = flat fitted curve, though single readings scatter. Where the call is inconclusive, the potency comes from a doubtful curve fit.
# Test: qHTS assay for MDR1-selective chemotherapeutics: Primary screen using the drug-selected MDR subline cells KB-V1; note: nearly all actives have a fitted effect of over 60% in size
# Details: KB-V1 MDR cells viability, CellTiter-Glo, 72 h; series mostly up to 46.1 µM
# How it was run: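 Following 72 h at 37 degrees C with compound, KB-V1 cell viability was read by CellTiter-Glo luminescence, medium being phenol-red-free DMEM plus 10% FBS; concentration-response parameters came from normalized, curve-fitted qHTS data.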
# Potency is the fitted concentration of half-maximal effect.
row,Compound,Potency
1,CCCC1=Nc2cc(C(=O)N3CCC(C(N)=O)CC3)ccc2Sc2ccccc21,inactive
2,COc1ccc(S(=O)(=O)NCC(c2ccco2)N2CCc3ccccc3C2)cc1 (configuration not stated),"inconclusive: 29.1 µM [cytotoxic, single point]"
3,CN(C)S(=O)(=O)c1ccc(C(=O)N2CC(=O)Nc3ccc(Br)cc3C2c2ccc(F)cc2)cc1 (configuration not stated),inactive
4,N#Cc1c(NC(=O)CSc2ncn[nH]2)sc2c1CCCCC2,active: 4.11 µM
5,COc1ccc(-c2cc(CNc3nc(NC(C)C)nc4cc(-c5ccccc5)sc34)on2)cc1,active: 20.6 µM
6,CC(Oc1ccc2c3c(c(=O)oc2c1)CCC3)C(=O)NCCCn1ccnc1 (configuration not stated),"inconclusive: 16.4 µM [rising, single point]"
7,CCN(CC)C(=O)c1sc2c(c1C)c(=O)n(-c1ccccc1)c(=O)n2CC(=O)Nc1ccc(C)cc1C,inactive
8,Cc1cc(=O)n(Cc2cccc(Cl)c2)c2c1c(C)nn2-c1ccccc1,"inconclusive: 29.1 µM [rising, single point]"
9,O=C(NCC1CCCO1)c1cc2n(n1)C(C(F)(F)F)CC(c1ccc(Br)cc1)N2 (configuration not stated),active: 8.2 µM
10,Cc1cccc(-n2c(=O)c3c4c(sc3n3cnnc23)CCCC4)c1,"inconclusive: 18.4 µM [cytotoxic, single point]"
11,CCN1CCN(c2c(S(=O)(=O)c3ccc(C)c(C)c3)cnc3cc(OC)c(OC)cc23)CC1,"inconclusive: 29.1 µM [cytotoxic, single point]"
12,CCCCOC(=O)c1c(C)oc2ccc(NS(=O)(=O)c3ccc4c5c(cccc35)C(=O)N4)cc12,active: 14.6 µM
13,FC(F)(F)c1ccc(Cl)c(NC(=S)N/N=C/c2ccccc2Cl)c1,"inconclusive: 14.6 µM [cytotoxic, partial curve]"
14,CCCCCCC[C@@H](C/C=C/CCC(=O)N(C)C/C(=C/Cl)C/C(=C\C(=O)N1CC(OC)=CC1=O)OC)OC,"inconclusive: 23.1 µM [cytotoxic, partial curve, poor fit]"
15,CCc1nnc(NC(=O)c2cccc(S(=O)(=O)N3CCc4ccccc43)c2)s1,inactive
16,Cc1ccc(-n2ncc3c(=O)n(CC(=O)N4CCN(C(=O)c5ccco5)CC4)cnc32)cc1,active: 11.6 µM
17,CCCCN(CC)CCCNC(=O)c1cc2c(=O)n(C)c3ccccc3c2n1C,inactive
18,CC1(C)Cc2c(cnn2-c2ccccc2)C(NC(=O)CCCN2CCCCC2=O)C1 (configuration not stated),"inconclusive: 25.9 µM [cytotoxic, single point]"
19,CCc1nc2ccc(C(=O)N(C)Cc3ccccc3)cn2c1N(C)Cc1ccc(OC)cc1,"inconclusive: 9.2 µM [cytotoxic, partial curve]"
20,O=C(COC(=O)c1nc(Cl)c(Cl)c(Cl)c1Cl)c1ccc[nH]1,"inconclusive: 23.1 µM [cytotoxic, single point]"
21,Cc1ccc(-c2nc(-c3ccncc3)no2)c(Cl)c1,"inconclusive: 23.1 µM [cytotoxic, single point]"
22,O=C(CC(=O)Nc1ccc(F)cc1)Nc1ccc(F)cc1,inactive
23,CCCCSc1ncnc2c1c(-c1ccccc1)cn2-c1cccc(F)c1,inactive

row,Compound,Potency
1,O=C(CCCN1C(=O)c2ccccc2C1=O)NC1=NCCS1,"inconclusive: 29.1 µM [rising, single point]"
2,COc1ccc(NC(=O)c2cc(C3CCCCN3C(=O)CCc3ccccc3)on2)c(C)c1 (configuration not stated),inactive
3,CCCC(=O)Nc1ccc(C(=O)COC(=O)C2CC2C)cc1 (configuration not stated),"inconclusive: 20.6 µM [rising, partial curve, poor fit]"
4,CSc1nc(SCC(=O)NCc2ccco2)c2c3c(sc2n1)COC(C)(C)C3,active: 3.66 µM
5,COc1ccccc1N1CCN(C(=O)CCS(=O)(=O)c2ccc3c(c2)NC(=O)C(C)S3)CC1 (configuration not stated),"inconclusive: 16.4 µM [rising, single point]"
6,COc1cc2c(O)c3c(c(-c4ccc5c(c4)OCO5)c2cc1OC)C(=O)OC3,active: 4.61 µM
7,CC(=O)Nc1cc(NC(C)=O)cc(-c2nc3ccccc3[nH]2)c1,"inconclusive: 5.17 µM [cytotoxic, full curve, poor fit]"
8,O=C(Nc1cc(-c2nc3ncccc3o2)ccc1Cl)c1ccc([N+](=O)[O-])o1,"inconclusive: 11.6 µM [cytotoxic, partial curve, poor fit]"
9,Cn1c(Sc2ccc(C(F)(F)F)cc2[N+](=O)[O-])nnc1-c1ccccc1,active: 20.6 µM
10,COc1ccc(S(=O)(=O)N2CCOCC2)cc1NC(=O)/C=C/c1ccccc1,inactive
11,O=C(Cc1ccccc1F)Nc1cccc(S(=O)(=O)N2CCCCC2)c1,"inconclusive: 29.1 µM [cytotoxic, single point]"
12,CC(=O)N1CCc2cc(S(=O)(=O)NC(CC(C)C)C(=O)NCc3ccccc3)ccc21 (configuration not stated),"inconclusive: 29.1 µM [rising, single point]"
13,CC1(C)OC(c2ccccc2)=C/C(=C/C=N/NC(=O)c2ccncc2)O1,"inconclusive: 23.1 µM [cytotoxic, single point]"
14,CC(C(=O)NC1CCCC1)N1CCN(S(=O)(=O)c2ccc(C(C)(C)C)cc2)CC1 (configuration not stated),"inconclusive: 29.1 µM [cytotoxic, partial curve, poor fit]"
15,O=C(CCSc1nc(-c2ccco2)cc(C(F)(F)F)n1)N1CCN(c2ccccc2)CC1,"inconclusive: 7.31 µM [cytotoxic, partial curve, poor fit]"
16,CC(=O)Oc1ccc(/C=N/NC(=O)c2ccc(N(C)S(=O)(=O)c3ccccc3)cc2)cc1,"inconclusive: 29.1 µM [rising, single point]"
17,CCCCN(CCCC)CC(O)Cn1cc(/C=C/C(=O)c2ccccc2)c2ccccc21 (configuration not stated),"inconclusive: 29.1 µM [cytotoxic, single point]"
18,CSc1nc(Oc2ccc3ccccc3c2)c2ccccc2n1,"inconclusive: 29.1 µM [cytotoxic, single point]"
19,COC(=O)C1CCN(C(=O)c2cc(-c3ccc(Cl)s3)nc3ccccc23)CC1,"inconclusive: 16.4 µM [cytotoxic, single point]"
20,CCn1cc(C(=O)NCc2ccccc2)c(=O)c2cc(F)c(N3CCN(C(=O)c4ccco4)CC3)cc21,"inconclusive: 10.3 µM [cytotoxic, partial curve]"
21,CN1CCN(C(=S)c2ccc(N(C)C)cc2)CC1,"inconclusive: 35.5 µM [cytotoxic, single point]"
22,Cc1nnc2c(NC(C)C)nc3ccccc3n12,"inconclusive: 23.1 µM [cytotoxic, partial curve]"
23,Cc1[nH]c2ccc(C(C)C)cc2c1CC(=O)O,inactive

row,Compound,Potency
1,CC(C)(C)C(=O)Nc1cccc(-c2ccc[nH]2)n1,active: 16.4 µM
2,COc1ccc(/C=N/NC(=O)c2nc(-c3ccccc3)n(-c3ccccc3)n2)cc1,inactive
3,CC(=O)C1=C(O)C(=O)N(CCc2ccccc2)C1c1ccccc1[N+](=O)[O-] (configuration not stated),inactive
4,CCOC(=O)c1ccc(S(=O)(=O)NCC(c2ccc(N(C)C)cc2)c2c[nH]c3ccccc23)cc1 (configuration not stated),"inconclusive: 13 µM [cytotoxic, partial curve]"
5,CCCc1nc(-c2cc3ccc(C)cc3[nH]c2=O)no1,active: 11.6 µM
6,CCC[C@H]1CN(c2ccccc2)C(=O)[C@@H]1CC(=O)Nc1ccc(Br)cc1,"inconclusive: 1.3 µM [rising, full curve, poor fit]"
7,CN(C)CCCNc1oc(-c2ccccc2Cl)nc1S(=O)(=O)c1ccccc1,"inconclusive: 0.0206 µM [cytotoxic, full curve]"
8,COc1ccc(C(=O)NC2=Nc3ccccc3N=C(C)C2c2ccccc2)cc1 (configuration not stated),"inconclusive: 9.2 µM [cytotoxic, partial curve]"
9,COc1ccccc1C1(CC(=O)Nc2nccs2)CCOC(C(C)C)C1 (configuration not stated),"inconclusive: 18.4 µM [cytotoxic, partial curve]"
10,COC(=O)c1cc(NC(=O)CN(C)C2CCS(=O)(=O)C2)cc(C(=O)OC)c1 (configuration not stated),inactive
11,O=S(=O)(c1ccc(N=C2NN=C(c3cc(F)ccc3F)CS2)cc1)N1CCOCC1,"inconclusive: 20.6 µM [cytotoxic, single point]"
12,O=C(c1cccc(F)c1)N(Cc1nc2ccccc2c(=O)[nH]1)C1CCCC1,"inconclusive: 14.6 µM [cytotoxic, partial curve]"
13,Cc1noc(C)c1CSc1nnc(-c2ccncc2)n1-c1cccc(Cl)c1C,"inconclusive: 18.4 µM [cytotoxic, partial curve, poor fit]"
14,COc1ccc(CCNC(=O)CSc2nnc(-c3cccc(C)c3)o2)cc1OC,"inconclusive: 15.8 µM [cytotoxic, single point]"
15,Cn1c(=O)c2cc(NC(=O)Cc3ccccc3F)ccc2n1C/C=C/c1ccccc1,inactive
16,COc1cccc2cc(C(=O)Nc3cc(Cl)ccc3N3CCOCC3)c(=O)oc12,"inconclusive: 29.1 µM [rising, single point]"
17,COc1ccc(CCC(=O)Nc2cc3c4c(c2)CCC(=O)N4CCC3)cc1,"inconclusive: 8.2 µM [cytotoxic, partial curve, poor fit]"
18,Cc1occc1C(=O)Nc1sc2c(c1C(N)=O)CCCCC2,"inconclusive: 23.1 µM [cytotoxic, single point]"
19,Cn1ccnc1SCC(=O)Nc1ccc(SC(F)F)cc1,inactive
20,O=c1[nH]c2sc3c(c2c2nncn12)CCCC3,"inconclusive: 20.6 µM [cytotoxic, single point]"
21,COc1ccc(N2CCN(C(=O)c3ccc(CS(=O)(=O)c4ccccc4C)o3)CC2)cc1,"inconclusive: 29.1 µM [cytotoxic, single point]"

# Five of the compounds above, bar-delimited:
row | Compound | Potency
10 | COC(=O)c1cc(NC(=O)CN(C)C2CCS(=O)(=O)C2)cc(C(=O)OC)c1 (configuration not stated) | inactive
11 | O=S(=O)(c1ccc(N=C2NN=C(c3cc(F)ccc3F)CS2)cc1)N1CCOCC1 | inconclusive: 20.6 µM [cytotoxic, single point]
12 | O=C(c1cccc(F)c1)N(Cc1nc2ccccc2c(=O)[nH]1)C1CCCC1 | inconclusive: 14.6 µM [cytotoxic, partial curve]
13 | Cc1noc(C)c1CSc1nnc(-c2ccncc2)n1-c1cccc(Cl)c1C | inconclusive: 18.4 µM [cytotoxic, partial curve, poor fit]
14 | COc1ccc(CCNC(=O)CSc2nnc(-c3cccc(C)c3)o2)cc1OC | inconclusive: 15.8 µM [cytotoxic, single point]

# Reference: PubChem BioAssay AID1347076 (National Center for Advancing Translational Sciences (NCATS), 2019)
